Percent effect of library compounds

Protein sequences, listed by entry. Tags and fused reporters are not part of them. Residues count along the entry.
UniProt I6X8D2, whole entry: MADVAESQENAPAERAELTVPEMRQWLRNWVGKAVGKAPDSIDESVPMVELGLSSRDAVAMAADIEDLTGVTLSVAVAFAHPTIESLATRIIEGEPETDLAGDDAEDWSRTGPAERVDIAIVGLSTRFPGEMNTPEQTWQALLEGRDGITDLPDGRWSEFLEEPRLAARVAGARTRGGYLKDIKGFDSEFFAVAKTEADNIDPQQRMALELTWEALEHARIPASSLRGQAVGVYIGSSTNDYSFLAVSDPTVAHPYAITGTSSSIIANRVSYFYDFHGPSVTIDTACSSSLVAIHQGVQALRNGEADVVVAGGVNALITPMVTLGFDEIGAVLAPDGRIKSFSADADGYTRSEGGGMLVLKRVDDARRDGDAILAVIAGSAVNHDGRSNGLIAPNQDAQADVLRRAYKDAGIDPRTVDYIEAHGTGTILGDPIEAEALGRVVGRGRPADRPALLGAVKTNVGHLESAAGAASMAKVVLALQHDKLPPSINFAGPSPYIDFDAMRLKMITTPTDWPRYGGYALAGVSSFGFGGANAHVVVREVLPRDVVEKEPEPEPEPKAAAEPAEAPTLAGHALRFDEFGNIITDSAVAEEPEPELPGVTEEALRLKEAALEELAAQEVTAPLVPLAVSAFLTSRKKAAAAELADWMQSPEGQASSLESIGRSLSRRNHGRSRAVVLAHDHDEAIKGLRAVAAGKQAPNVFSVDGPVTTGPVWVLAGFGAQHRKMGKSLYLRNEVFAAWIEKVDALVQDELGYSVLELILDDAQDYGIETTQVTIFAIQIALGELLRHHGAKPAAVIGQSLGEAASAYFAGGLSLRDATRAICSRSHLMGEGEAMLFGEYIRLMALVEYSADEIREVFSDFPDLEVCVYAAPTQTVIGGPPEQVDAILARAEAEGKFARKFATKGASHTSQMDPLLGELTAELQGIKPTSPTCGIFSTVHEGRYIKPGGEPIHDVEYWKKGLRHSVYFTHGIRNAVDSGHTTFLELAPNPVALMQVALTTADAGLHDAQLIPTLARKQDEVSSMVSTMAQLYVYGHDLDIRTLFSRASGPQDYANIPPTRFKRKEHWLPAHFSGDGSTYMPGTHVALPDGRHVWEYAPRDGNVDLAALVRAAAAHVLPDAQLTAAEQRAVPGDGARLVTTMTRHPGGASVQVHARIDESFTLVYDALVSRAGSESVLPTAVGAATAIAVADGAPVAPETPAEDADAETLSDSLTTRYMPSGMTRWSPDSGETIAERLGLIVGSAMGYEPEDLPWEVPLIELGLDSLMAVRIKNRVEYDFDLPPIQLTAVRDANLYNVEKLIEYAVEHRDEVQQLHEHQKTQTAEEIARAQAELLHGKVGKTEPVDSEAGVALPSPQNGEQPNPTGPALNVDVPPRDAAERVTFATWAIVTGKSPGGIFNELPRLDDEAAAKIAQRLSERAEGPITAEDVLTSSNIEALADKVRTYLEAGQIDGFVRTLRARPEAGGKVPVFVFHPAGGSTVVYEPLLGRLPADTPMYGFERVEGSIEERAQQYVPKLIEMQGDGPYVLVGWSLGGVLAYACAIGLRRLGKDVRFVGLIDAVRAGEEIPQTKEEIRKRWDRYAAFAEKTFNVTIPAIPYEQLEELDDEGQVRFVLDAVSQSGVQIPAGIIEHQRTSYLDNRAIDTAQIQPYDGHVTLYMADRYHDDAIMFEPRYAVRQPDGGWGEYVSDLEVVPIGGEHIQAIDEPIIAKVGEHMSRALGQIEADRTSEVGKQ
UniProt P9WNZ1, whole entry: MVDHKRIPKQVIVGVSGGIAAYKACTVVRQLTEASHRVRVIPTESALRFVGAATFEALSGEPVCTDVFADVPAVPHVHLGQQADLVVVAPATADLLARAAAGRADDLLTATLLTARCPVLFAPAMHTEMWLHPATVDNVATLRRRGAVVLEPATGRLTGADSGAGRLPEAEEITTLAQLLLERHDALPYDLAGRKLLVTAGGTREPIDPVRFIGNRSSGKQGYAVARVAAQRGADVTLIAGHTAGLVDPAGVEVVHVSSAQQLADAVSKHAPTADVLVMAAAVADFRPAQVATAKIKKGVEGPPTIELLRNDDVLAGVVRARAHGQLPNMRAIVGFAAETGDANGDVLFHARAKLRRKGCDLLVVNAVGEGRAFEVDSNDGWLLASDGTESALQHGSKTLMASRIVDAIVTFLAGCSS
UniProt P9WFT3, whole entry: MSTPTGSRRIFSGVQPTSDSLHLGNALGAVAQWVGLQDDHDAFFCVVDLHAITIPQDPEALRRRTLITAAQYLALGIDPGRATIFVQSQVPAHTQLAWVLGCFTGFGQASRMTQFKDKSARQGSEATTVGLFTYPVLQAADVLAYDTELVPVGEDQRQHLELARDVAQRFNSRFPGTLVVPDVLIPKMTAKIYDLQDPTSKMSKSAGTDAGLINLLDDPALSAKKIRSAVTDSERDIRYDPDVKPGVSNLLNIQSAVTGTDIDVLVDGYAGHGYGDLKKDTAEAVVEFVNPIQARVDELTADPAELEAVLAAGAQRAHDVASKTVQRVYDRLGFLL
UniProt A4I591, 1-473: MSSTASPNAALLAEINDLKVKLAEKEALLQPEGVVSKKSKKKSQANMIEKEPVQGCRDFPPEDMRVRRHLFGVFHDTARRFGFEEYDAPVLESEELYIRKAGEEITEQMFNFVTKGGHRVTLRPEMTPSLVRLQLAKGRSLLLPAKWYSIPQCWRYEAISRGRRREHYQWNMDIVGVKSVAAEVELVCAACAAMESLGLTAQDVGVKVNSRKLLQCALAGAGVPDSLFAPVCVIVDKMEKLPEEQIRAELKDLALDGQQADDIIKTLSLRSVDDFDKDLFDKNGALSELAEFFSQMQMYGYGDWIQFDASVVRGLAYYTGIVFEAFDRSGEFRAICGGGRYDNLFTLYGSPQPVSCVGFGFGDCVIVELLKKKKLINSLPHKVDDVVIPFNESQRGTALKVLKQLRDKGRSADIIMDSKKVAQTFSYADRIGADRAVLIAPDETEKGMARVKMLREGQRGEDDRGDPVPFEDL
UniProt Q4DA54, 1-478: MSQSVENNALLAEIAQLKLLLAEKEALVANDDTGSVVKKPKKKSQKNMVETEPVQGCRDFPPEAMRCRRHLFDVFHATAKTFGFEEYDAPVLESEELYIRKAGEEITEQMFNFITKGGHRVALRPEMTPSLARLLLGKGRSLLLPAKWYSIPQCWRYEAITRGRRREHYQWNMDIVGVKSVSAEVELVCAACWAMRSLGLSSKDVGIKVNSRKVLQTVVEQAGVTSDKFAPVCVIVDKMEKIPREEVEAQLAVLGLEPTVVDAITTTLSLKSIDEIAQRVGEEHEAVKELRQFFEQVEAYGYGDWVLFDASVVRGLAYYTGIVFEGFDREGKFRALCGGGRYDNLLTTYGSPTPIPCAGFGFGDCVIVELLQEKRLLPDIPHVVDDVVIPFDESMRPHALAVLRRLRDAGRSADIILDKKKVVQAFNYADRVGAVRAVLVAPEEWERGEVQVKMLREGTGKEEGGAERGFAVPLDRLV

Pks13 thioesterase: 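Polyketide synthase Pks13, Mycobacterium tuberculosis (UniProt I6X8D2). Enzyme assay of the thioesterase domain of polyketide synthase 13; the read-out is not stated. Concentration: 30 µM. Higher reads as stronger inhibition (inferred from which compounds were picked for retests). Of about 67,000 compounds tested this way, about 300 (0.46%) reached 50% or more in at least one test.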
Toxoplasma: 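Assay of Toxoplasma gondii numbers, read through their beta-galactosidase reporter with a colour substrate. Tested at 10 µM. The record gives no direction; the compounds picked for IC50 retests had high values, so higher reads as fewer parasites. About 67,000 compounds were tested under these conditions; 0.38% (about 260) showed 50% or more at least once.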
CoaBC: 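Coenzyme A biosynthesis protein CoaBC, Mycobacterium tuberculosis (UniProt P9WNZ1). Enzyme assay of CoaBC with a phosphate dye (Biomol Green) read at 650 nm. Compounds at 30 µM. Direction is inferred from only a few compounds that gave an IC50; most scored high, so higher reads as stronger inhibition. Most strong results did not repeat in a second test. Size under these conditions: about 67,000 compounds, about 40 of them at 50% or above in at least one test.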
MtTrpRS: 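Tryptophan-tRNA ligase, Mycobacterium tuberculosis (UniProt P9WFT3). Enzyme assay of tryptophanyl-tRNA synthetase; the read-out is not stated. Concentration: 10 µM. Direction is not recorded; retested compounds ran higher, which suggests that high means inhibition. Of about 65,000 compounds tested this way, about 64 (0.098%) reached 50% or more in at least one test.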
LiHisRS: 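Histidine-tRNA ligase, Leishmania infantum (UniProt A4I591). Enzyme assay of histidyl-tRNA synthetase; the read-out is not stated. Tested at 30 µM. Higher reads as stronger inhibition (inferred: compounds with an IC50 in retests scored well above the rest). The assay is labelled LdHisRS but filed under L. infantum. Size under these conditions: about 69,000 compounds, about 410 of them at 50% or above in at least one test.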
TcHisRS: 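Histidine-tRNA ligase, Trypanosoma cruzi CL Brener (UniProt Q4DA54). Enzyme assay of histidyl-tRNA synthetase; the read-out is not stated. Concentration: 30 µM. Direction is inferred from retests: higher values go with stronger inhibition. Of about 69,000 compounds tested this way, about 31 (0.045%) reached 50% or more in at least one test.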

The filed quantity is “Percent Effect” (%). The controls that fix the scale are not given in the record; negative values are as filed. This is an unselected part of the compounds tested. A dash means the value is not listed here; it may have been measured.

compound	Pks13 thioesterase	Toxoplasma	CoaBC	MtTrpRS	LiHisRS	TcHisRS
CC(=O)NCCCNC(=O)N(C)C(C)Cc1ccc(Cl)cc1 (centres undefined)	-10.99	4.099	-4.206	1.38	15.04	1.327
Cc1ccc(-c2nc(CNC(C)Cn3cccn3)cs2)o1 (centres undefined)	-11.48	1.117	3.827	-21.07	20	11.11
Cn1cnnc1C1CCCN(C(=O)COc2ccccc2Cl)C1 (centres undefined)	-0.4332	2.808	3.916	-4.514	18.58	8.455
CCc1ccsc1C(=O)N1CCCN(Cc2cscn2)CC1	-11.29	8.424	6.527	-4.765	13.27	8.455
CN(C)CCOCC1CN(C(=O)N2CCCC2)Cc2ccnn2C1.O=C(O)C(F)(F)F.O=C(O)C(F)(F)F (centres undefined)	-	0.1127	-	-	-	-
O=C(N[C@@H]1CN(CCc2ccc(F)cc2)C[C@H]1O)c1cscn1	-	-0.08618	7.524	-	15.94	12.09
COCc1ccccc1C(=O)N1CCn2c(nnc2C(C)C)C1	-29.77	-1.831	-3.74	1.283	19.33	4.902
[H][C@]12CC[C@](O)(c3ccc(F)cc3)[C@@]1([H])CN(C(=O)c1cc(C3CC3)on1)C2	-	-16.95	-	-	-	-
CCOc1ccc2nc(NC(=O)c3c(C(=O)O)cnn3C)sc2c1	12.54	-10.46	2.427	-5.184	11.9	3.96
CN(C)S(=O)(=O)N1C[C@H](Oc2cccnc2)[C@H]2OCCC[C@H]21	-9.844	-	-4.183	13.12	2.913	3.261
COc1ccc(CCNC(=O)Cn2ncc3c2c(C)nn3C)cc1	-33.31	1.953	0.6928	1.684	12.07	0.8696
CCOc1cccnc1C(=O)N1CCCN(c2nc(C)cs2)CC1	-5.63	-0.1189	1.29	2.102	14.47	-0.4926
CCN(Cc1ccncc1)C1CCCN(C/C=C/c2ccc(F)cc2)C1 (centres undefined)	-2.137	-2.394	-7.983	0.8576	14.53	12.22
CCc1c(C)nc(C)nc1N1CCC(NCCSc2nnnn2C)CC1	-	14.08	3.194	2.614	21.43	9.412
CCN(C)c1ncc2c(c1C(=O)O)CCN(C1CCOC1)C2 (centres undefined)	21.95	-	-	3.344	6.897	8.861
CN(C)CC(=O)Nc1ccc(C(=O)N(C)CCc2cn[nH]c2)cc1	-4.773	1.04	6.696	17.23	13.54	-0.5525
O=C(c1cc(F)cc(F)c1)N1C[C@H]2CNC[C@H]2C1	-29.38	-	6.361	-2.183	9.709	4.854
N#Cc1ccccc1CN(CCO)Cc1ccsc1	-6.623	-11.18	2.785	-0.4772	2.632	3.659
Cc1cn2c(n1)CCC(NC(=O)CCn1cncn1)C2 (centres undefined)	-5.76	-0.8161	5.509	-1.072	4.545	1.515
O=c1c2cnc(N3CCCCC3)nc2ccn1-c1ccccc1F	13.45	3.699	-5.782	-6.876	1.667	5.682
O=C(CN1CCCC1CC(=O)c1ccccc1)NCc1ccccn1 (centres undefined)	-20.48	19.41	0.9223	5.598	-4.11	-34
CC(C)c1nccn1C1CCCN(C(=O)c2ccc3[nH]cnc3c2)C1 (centres undefined)	-35.26	2.664	17.49	2.522	4.959	0
CC(C)Cn1cncc1CNC1CCSCC1	-10.61	1.687	5	-2.649	15.38	7.831
CC(C#N)(NC(=O)COc1ccccc1Br)C1CC1 (centres undefined)	-0.7596	-6.815	-3.419	8.922	1.709	8.108
Cc1cccc(CN2Cc3ncn(C)c3C(COCC(=O)N(C)C)C2)n1 (centres undefined)	-3.795	-	-5.679	-3.721	13.89	5.607
CCc1cc(C(=O)N2CCCC2c2nc(C)c(CC)c(O)n2)on1 (centres undefined)	-7.407	-2.919	1.225	-	5.208	3.191
N#CCCn1cnc2c(F)cc(Br)cc2c1=O	-4.555	-8.258	-4.04	1.419	13.83	12.12
O=C(c1ccccc1F)N1CCCC1Cn1c(=O)oc2ccccc21 (centres undefined)	-12.78	8.323	-4.843	-5.679	8.392	8.475
CNc1cc2c(nn1)CCN(C(=O)c1ccc3c(c1)OCO3)C2	4.421	-8.551	3.106	-4.061	13.46	4.571
O=S(=O)(Cc1ccc(Br)cc1)NCCO	23.68	12.03	1.79	-3.344	8.046	6.186
COc1cc2nc(NCc3cc(C)on3)nc(N)c2cc1OC	78.91	4.435	-3.415	7.64	0	2.597
CCOCC(C)(C)NC(=O)Nc1cc(F)ccc1OC	-11.38	0.05565	-2.58	4.351	12.4	5.952
CCN1C(=O)CC(c2cccnc2)C12CCN(c1ncc(F)cn1)CC2 (centres undefined)	-26.84	-0.4787	-	-7.461	15.38	9.816
CN1CCN([C@@H]2CCN(C3CCOCC3)[C@H]2Cc2cnn(C)c2)CC1.O=C(O)C(F)(F)F.O=C(O)C(F)(F)F.O=C(O)C(F)(F)F	-	-7.139	-	-	-	-
CCOc1ccc(OCC(O)CN2CCN(S(C)(=O)=O)CC2)cc1 (centres undefined)	1.152	9.349	2.089	-4.639	11.5	4.956
Cc1nc(NS(=O)(=O)c2ccc(F)c(Br)c2)no1	-11.71	-0.9831	1.34	-1.288	13.98	2.976
COc1ccc(-c2cc(N)ccn2)c(OC)c1OC	10.48	3.647	-0.4914	0.9709	10.32	5.882
O=C(O)C(F)(F)F.O=C(O)C(F)(F)F.[H][C@@]12CCCO[C@]1([H])[C@H](Oc1ncccc1F)CN2Cc1ccco1	-	-10.07	-	-	-	-
Cc1noc(C2CCN(C(=O)CCc3ccccn3)CC2)n1	-3.989	-19.56	-1.842	-7.353	-0.9259	6.158
CO[C@@H]1CCN(Cc2cccc(C)n2)[C@@H]2CN(Cc3ccncc3)C[C@@H]21	-9.132	-	5.549	-4.655	14.52	5.263
OC1(CNCCN2CCCc3ccccc32)CCNC1 (centres undefined)	-12.66	6.669	2.358	3.079	38.46	5.155
CC/C=C(/C)C(=O)NCc1ccnc(OC)c1	-4.801	-7.203	-3.226	-2.3	3.509	10.92
[H][C@@]12CCN(c3cnccn3)C[C@@]1(C(=O)O)CCCN2Cc1ccccn1	-	3.254	-	-	-	-
Cc1cccc(CN2CC3C[C@]3(NC(=O)c3cccc(F)c3)C2)n1.O=C(O)C(F)(F)F (some centres undefined)	-	2.713	-	-	-	-
CCc1nc(CNc2ccc(F)c(F)c2)no1	1.928	-14.2	3.502	-0.1899	-0.9009	6.667
CNC(=O)C(C)(C)CNC(=O)Nc1ccncc1C	-34.74	-3.421	2.564	-6.638	5.128	4.865
COc1cc(F)ccc1NC(=O)NCCNC(=O)OC(C)(C)C	-10.1	26.99	1.843	3.202	10.85	8.333
CC(Cn1cccn1)NC(=O)NCCc1ccsc1 (centres undefined)	-	6.414	7.398	20.13	16.36	1.754
CC(C)c1nnc2ccc(N3CCC(C(=O)Nc4nccs4)CC3)nn12	-26.51	-2.75	-0.1346	0.000009	17.48	2.732
CC(=O)N1CCc2c(nc(-c3ccncc3)nc2N(C)CC(O)CO)C1 (centres undefined)	11.77	-10.23	-9.649	-2.423	20.95	3.306

Some entries from above, unchanged:

compound,Pks13 thioesterase,Toxoplasma,CoaBC,MtTrpRS,LiHisRS,TcHisRS
CCOc1ccc(OCC(O)CN2CCN(S(C)(=O)=O)CC2)cc1 (centres undefined),1.152,9.349,2.089,-4.639,11.5,4.956
CC(C)c1nnc2ccc(N3CCC(C(=O)Nc4nccs4)CC3)nn12,-26.51,-2.75,-0.1346,0.000009,17.48,2.732
CC(=O)NCCCNC(=O)N(C)C(C)Cc1ccc(Cl)cc1 (centres undefined),-10.99,4.099,-4.206,1.38,15.04,1.327
CCN(Cc1ccncc1)C1CCCN(C/C=C/c2ccc(F)cc2)C1 (centres undefined),-2.137,-2.394,-7.983,0.8576,14.53,12.22

Data taken from ChEMBL document CHEMBL3988442, “University of Dundee, Small-Polar-MMV Screening Library” (2021).